Reference: patent US20120014950A1, “Antibodies That Specifically Bind to DR3” (Xencor, Inc., priority 2010, published 2012)
For at least one compound, name, drawing or mass did not settle the structure.

System: collagen induced arthritis (CIA) mice
Assay: Murine collagen induced arthritis (CIA) model
Assay type: in vivo, DBA/1JLacJ mice
Conditions: 200 μg i.p. days 21, 28, 35, 42 (dexamethasone 50 μg i.p. e.o.d.)
Procedure: In general CIA was induced using the following protocol. Male DBA/1JLacJ mice (8-10 weeks) were injected intradermally (i.d.) at the base of the tail with […] of type II bovine collagen (CII) and complete Freund's adjuvant (CFA) at a final concentration of 4 mg/ml on Day 1. Mice were given a second injection i.d. with CII and CFA on Day 21. On days 21, 28, 35, and 42, mice were treated prophylactically with 200 μg intraperitoneal (i.p.) of the therapeutic molecules, anti-TNF-α antibody (R&D systems, cat #AB-410-NA) or D06-Fab-MSA. In addition, a control group of mice was not treated with a therapeutic molecule (“No Treatment”) and a second control group was treated with 50 μg dexamethasone i.p. every other day (e.o.d.) (“Dexamethasone”). The animals were scored every other day until the experiment was terminated on Day 46.
In a separate experiment, on days 21, 28, 35, and 42, CIA-mice were treated prophylactically with 200 μg intraperitoneal (i.p.) of either 2D9-Fab-MSA, or 5D10-Fab-MSA. In addition, a control group of mice was treated with an isotype control antibody (IgG1). The animals were scored every other day until the experiment was terminated on Day 46. Clinical scores were determined as above.
Histology was preformed to further determine the degree of inflammation as well as potential bone erosion in these animals. […]

Question: For `C[C@@H]1C[C@H]2[C@@H]3CCC4=CC(=O)C=C[C@]4(C)[C@@]3(F)[C@@H](O)C[C@]2(C)[C@@]1(O)C(=O)CO` [Dexamethasone], which clinical observation scores is on record?
Answer: The clinical observation scores was “compeletely prevented clinical manifestations of collagen-induced arthritis”.
